PubChem BioAssay AID504784 – Drosophila RNAi Screening Center | 2011
Test: 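Genome-wide knock-down for genes giving too much or too little stored lipid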 (primary screen). Cell system: Drosophila Kc167 embryonic cells. Knock-down reagent: long dsRNA against Drosophila genes, about 250 ng dsRNA per well. Timing: 4 days. Conditions: cells fed 400 µM oleic acid bound to BSA. Measurement: 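Cells imaged and segmented; ratio of lipid droplet area to nuclear area, log-transformed, then normalised as a B-score over the screen; higher means more stored lipid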. Scale: droplet/nuclear area B-score: higher = more stored lipid (overstorage).
The deposit covers about 17,000 reagents; below is an unselected part of those with a known target gene and a result. 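Each column is one replicate's B-score; the combined score over replicates was not deposited, so single values may mislead.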 Further read-outs or replicates are left out here.

After knock-down of CG8407 [DRSC07167], the screen gave droplet/nuclear area B-score, replicate 1 = -1.21.
Against mRpL22 (mitochondrial ribosomal protein L22) [DRSC19915] the deposit lists droplet/nuclear area B-score, replicate 1 = 0.307.
Depletion of sro (shroud) [DRSC14469] resulted in: droplet/nuclear area B-score, replicate 1 = 0.282.
After knock-down of Ufd4 (Ubiquitin fusion-degradation 4-like) [DRSC02871], the screen gave droplet/nuclear area B-score, replicate 1 = -0.368.
After knock-down of Jon25Bi (Jonah 25Bi) [DRSC03434] the results were droplet/nuclear area B-score, replicate 1 = -2.63.
CG13731 [DRSC10059] scored droplet/nuclear area B-score, replicate 1 = 0.394.
Silencing of Mtap (Methylthioadenosine phosphorylase) [DRSC06890] gave: droplet/nuclear area B-score, replicate 1 = 0.908.
Knock-down of CG5592 [DRSC10524] came out at: droplet/nuclear area B-score, replicate 1 = 0.94.
Silencing of CG9674 [DRSC11088] resulted in: droplet/nuclear area B-score, replicate 1 = -0.142.
CG9674 [DRSC11089] gave droplet/nuclear area B-score, replicate 1 = -1.21.
Wdr82 (WD repeat domain 82) [DRSC02595] scored droplet/nuclear area B-score, replicate 1 = 0.817.
Wdr82 (WD repeat domain 82) [DRSC21723] showed droplet/nuclear area B-score, replicate 1 = -0.948.
CG11892 [DRSC14428] gave droplet/nuclear area B-score, replicate 1 = -3.35.
Knock-down of CG12609 [DRSC19473] resulted in: droplet/nuclear area B-score, replicate 1 = 0.379.
CG4645 [DRSC19907] showed droplet/nuclear area B-score, replicate 1 = -0.0254.
For Slc25A46a [DRSC20125] the deposit lists droplet/nuclear area B-score, replicate 1 = -0.565.
Cyp309a1 (Cytochrome P450 309a1) [DRSC00747] gave droplet/nuclear area B-score, replicate 1 = -1.
For oxt (peptide O-xylosyltransferase) [DRSC08522] the deposit lists droplet/nuclear area B-score, replicate 1 = 1.63.
nom (numerous disordered muscles) [DRSC16389] gave droplet/nuclear area B-score, replicate 1 = -0.14.
Ercc1 [DRSC07424] scored droplet/nuclear area B-score, replicate 1 = 3.82.
Against Myc [DRSC18762] the deposit lists droplet/nuclear area B-score, replicate 1 = 2.31.
After knock-down of grsm (granny smith) [DRSC14165], the screen gave droplet/nuclear area B-score, replicate 1 = 0.0232.
Against grsm (granny smith) [DRSC14843], the entry reads droplet/nuclear area B-score, replicate 1 = 0.0707.
After knock-down of Tim9a [DRSC19753], the record shows droplet/nuclear area B-score, replicate 1 = 0.316.
Against r2d2 [DRSC03014] the deposit lists droplet/nuclear area B-score, replicate 1 = 1.24.
Against CG14147 [DRSC10149], the values are droplet/nuclear area B-score, replicate 1 = 0.971.
For Den1 (Deneddylase 1) [DRSC07195], the values are droplet/nuclear area B-score, replicate 1 = -0.0223.
With knock-down of CG13000 [DRSC19519], the record shows droplet/nuclear area B-score, replicate 1 = 0.271.
With knock-down of CDase (Ceramidase) [DRSC14932], the screen gave droplet/nuclear area B-score, replicate 1 = -1.53.
With knock-down of Cpr64Ad (Cuticular protein 64Ad) [DRSC08284] the results were droplet/nuclear area B-score, replicate 1 = -1.47.
Against DCAF12 (DDB1 and CUL4 associated factor 12) [DRSC15475] the deposit lists droplet/nuclear area B-score, replicate 1 = -0.572.
crol (crooked legs) [DRSC03514] gave droplet/nuclear area B-score, replicate 1 = 0.15.
Depletion of crol (crooked legs) [DRSC21348] resulted in: droplet/nuclear area B-score, replicate 1 = 2.74.
Depletion of CG5172 [DRSC19936] resulted in: droplet/nuclear area B-score, replicate 1 = -0.541.
After knock-down of Oat (Ornithine aminotransferase precursor) [DRSC11043] the results were droplet/nuclear area B-score, replicate 1 = 0.324.
Ndfip (Nedd4 family interacting protein) [DRSC11201] scored droplet/nuclear area B-score, replicate 1 = 0.676.
Silencing of bsk (basket) [DRSC03499] gave: droplet/nuclear area B-score, replicate 1 = -0.991.
Silencing of conu (conundrum) [DRSC07810] came out at: droplet/nuclear area B-score, replicate 1 = -0.00689.
Silencing of Cnx14D (Calnexin 14D) [DRSC20214] came out at: droplet/nuclear area B-score, replicate 1 = 0.019.
Silencing of mmd (mind-meld) [DRSC19672] resulted in: droplet/nuclear area B-score, replicate 1 = 1.63.
Knock-down of mmd (mind-meld) [DRSC19673] gave: droplet/nuclear area B-score, replicate 1 = 0.333.
For mmd (mind-meld) [DRSC20161] the deposit lists droplet/nuclear area B-score, replicate 1 = -0.0547.
Knock-down of mmd (mind-meld) [DRSC23042] resulted in: droplet/nuclear area B-score, replicate 1 = -0.0412.

Targets listed so far whose gene name begins with D or d (2):
Den1 (Deneddylase 1) [DRSC07195] → droplet/nuclear area B-score, replicate 1: -0.0223
DCAF12 (DDB1 and CUL4 associated factor 12) [DRSC15475] → droplet/nuclear area B-score, replicate 1: -0.572
